Data taken from ChEMBL document CHEMBL3988442, “University of Dundee, Small-Polar-MMV Screening Library” (2021).

Each number is a percent effect as filed.
The controls that fix the scale are not given in the record; negative values are as filed.
Compounds were drawn at random from those tested, without regard to their results.

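Whole-parasite assay of Trypanosoma brucei over 72 hours; the read-out is not stated. Concentration: 30 µM. Higher reads as stronger inhibition (inferred: compounds with an IC50 in retests scored well above the rest). Values scatter widely below zero; nearly all retest evidence comes from the higher of the two concentrations used. Of about 64,000 compounds tested this way, about 940 (1.5%) reached 50% or more in at least one test.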

With [H][C@]12CC[C@]([H])(CC(=O)NC1)N2C1CSCCSC1 the screen gave -1.324%.
With CN(CC(N)=O)Cc1ccc(F)cc1Cl the screen gave -10.34%.
With Cc1nc(CCNC(=O)NC2CCN(c3ncccn3)CC2)cs1 the screen gave 0.6197%.
With O=C(NCCc1cccs1)C1(N2CCCCC2)Cc2ccccc2C1 the screen gave -0.4107%.
With O=C(Nc1ccc2c(c1)OC1(CCCC1)O2)c1ccc(=O)[nH]n1 the screen gave 3.578%.
With Cc1nccn1CCC1CCCCN1C(=O)c1ccc(N(C)C)cc1 (configuration not stated) the screen gave -2.15%.
With CNC(=O)c1cccc(CNC(C)c2cc(C)ccc2OC(F)F)c1 (configuration not stated) the screen gave -10.45%.
With CS(=O)(=O)c1cccc(C(N)c2ccccc2)c1 (configuration not stated) the screen gave 0.5334%.
With CC(=O)NCc1ccc(C(=O)N2CCCCC2Cn2cccn2)o1 (configuration not stated) the screen gave -23.8%.
With Cc1cc(C)n(-c2cccc(C(=O)Nc3n[nH]c(C4CCCO4)n3)c2)n1 (configuration not stated) the screen gave 11.11%.
With CN(C)CCNC(=O)c1nc2c(s1)CCCN2C(=O)C1CC1.O=C(O)C(F)(F)F the screen gave -95.61%.
With CCc1cnc(NCCSc2cnn[nH]2)nc1 the screen gave -17.6%.
With CNc1nc(C(=O)NCc2cccnc2N(C)C)cs1 the screen gave -50.82%.
With O=C(O)C(F)(F)F.O=C(O)C(F)(F)F.[H][C@@]12OCCC[C@]1([H])N(Cc1cccc(C)n1)C[C@@H]2NS(C)(=O)=O the screen gave -29.8%.
With CC1c2ncc(COCC3CC3)n2CCN1S(=O)(=O)N(C)C (configuration not stated) the screen gave -68.04%.
With CCCn1c(C)c(CC(=O)N(C)CCO)c2c1CC(C)(C)CC2=O the screen gave -50.76%.
With Cc1cc2nc(C(C)C)cc(N3CCC(Oc4ncccn4)CC3)n2n1 the screen gave -20.87%.
With O=C(C1CCCO1)N1CCC2(CC1)COCCN(Cc1cccnc1)C2.O=C(O)C(F)(F)F.O=C(O)C(F)(F)F (configuration not stated) the screen gave -77.17%.
With CC(=O)Nc1ccc(SCC(=O)NCC2CCCO2)nn1 (configuration not stated) the screen gave 2.722%.
With O=C1CSC(c2cccnc2)c2c(n(C3CCOCC3)[nH]c2=O)N1 (configuration not stated) the screen gave -20.73%.
With CCN(CC)CCCNc1nc(C)nc2c1CCN(C)C2.O=C(O)CC(O)(CC(=O)O)C(=O)O the screen gave -27.28%.
With CCCNC(=O)c1sc(Nc2ccc(Cl)cn2)nc1C the screen gave 11.42%.
With O=C1N(c2ccc(F)cc2)Cc2nc(=O)n(Cc3cccc(Cl)c3)n21 the screen gave -6.804%.
With CC(NC(=O)N1CCC2(C1)OCCO2)c1ccc(F)cc1Cl (configuration not stated) the screen gave -49.64%.
With CC(C)N(Cc1ccccn1)C(=O)CN(C)C(=O)c1cccs1 the screen gave -45.31%.
With CCS(=O)(=O)N(C)c1ccc(C(=O)N2CCCC(C)C2)cc1 (configuration not stated) the screen gave -8.716%.
With CC(NC(=O)NCc1ccoc1)c1ccc2c(c1)CCC(=O)N2 (configuration not stated) the screen gave 5.854%.
With O=C(c1ccccn1)N1CC[C@@H](N2CCOCC2)[C@@H]1Cc1ccccc1 the screen gave 35.52%.
With Cc1n[nH]c2c1C(c1cccnc1)SCC(=O)N2 (configuration not stated) the screen gave 6.934%.
With C[C@]1(O)CN(Cc2cscn2)CC[C@@H]1Oc1cccc(F)c1 the screen gave -5.978%.
With O=C(O)C(F)(F)F.c1csc(CN2CCc3ncnc(C4CCOC4)c3CC2)n1 (configuration not stated) the screen gave 16.29%.
With [H][C@@]12CCN(Cc3ccco3)C[C@@]1([H])O[C@H](c1ccnc(C)n1)C2 the screen gave 49.66%.
With OC1(CNCCc2csc(-c3cccnc3)n2)CCNC1 (configuration not stated) the screen gave 3.959%.
With O=C(c1nnn(-c2ccccc2Cl)c1-c1ccccn1)N1CCSCC1 the screen gave 13.86%.
With O=C(NCC1CCCO1)c1nc2c(s1)CCCN2C(=O)C1CC1 (configuration not stated) the screen gave -6.639%.
With COCCn1c(-c2cccc(OC)c2)cnc1NC(=O)NCCC(C)C the screen gave -8.411%.
With Cc1nc(C)n(CC2CCCN2Cc2cc(C)on2)n1 (configuration not stated) the screen gave -7.261%.
With Cc1nccc(N[C@H]2CN(CCS(C)(=O)=O)C[C@@H]2C2CC2)n1 the screen gave -15.27%.
With CCCc1cc(NCCN2CCNC2=O)n2nccc2n1 the screen gave 6.183%.
With O=C(NCc1ccccc1OCCO)Nc1ccc2c(c1)CCC2 the screen gave 5.114%.
With Cc1ncccc1Oc1nccnc1C1CCN(S(C)(=O)=O)CC1 the screen gave 16.89%.
With O=C(O)c1ccnc(-c2ccnc(COc3cccc(F)c3)n2)c1 the screen gave -47.26%.
With COCCN1CCC(NCc2cccc(F)c2)C1 (configuration not stated) the screen gave -45.07%.

5 of the entries, repeated:

- Cc1cc(C)n(-c2cccc(C(=O)Nc3n[nH]c(C4CCCO4)n3)c2)n1 (configuration not stated) : 11.11%
- O=C(O)c1ccnc(-c2ccnc(COc3cccc(F)c3)n2)c1 : -47.26%
- CCS(=O)(=O)N(C)c1ccc(C(=O)N2CCCC(C)C2)cc1 (configuration not stated) : -8.716%
- Cc1cc2nc(C(C)C)cc(N3CCC(Oc4ncccn4)CC3)n2n1 : -20.87%
- O=C(O)C(F)(F)F.c1csc(CN2CCc3ncnc(C4CCOC4)c3CC2)n1 (configuration not stated) : 16.29%